Test results as given in the supplement of paper PMC12823440, “Inhibitors supercharge kinase turnover through native proteolytic circuits” (Nature, 2025).
Counter-ions that a name gives are not always drawn. The list shows a part of the results. Hit calls seldom repeat between salt and free forms of one compound.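 In K562 cells expressing nanoluciferase-fused kinases, luminescence was recorded at 4 h intervals between 2 and 18 h, normalized as percent of control with DMSO at 100% and a positive control at 0%. A significant (2 sigma) signal drop marks a time point as decreased. The authors' rule for a hit is not shown and takes in more than the number of time points.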

These compounds were tested against EGFR_L858R (UniProt P00533) (assay: kinase-Nluc reporter destabilization hit call (1 = scored as downregulated) (binary); higher = compound decreases kinase abundance). Conditions: 2.5 µM; K562; 2-18 h.

kinase-Nluc reporter destabilization hit call, inactive:
C=CC(=O)N1CCC[C@@H](n2nc(-c3ccc(Oc4ccccc4)cc3)c3c(N)ncnc32)C1 [Ibrutinib] 0, Cc1cn(-c2cc(NC(=O)c3ccc(C)c(Nc4nccc(-c5cccnc5)n4)c3)cc(C(F)(F)F)c2)cn1 [Nilotinib] 0, Cc1cc(C)n2c1C=C1C=CC(CCC(=O)NCCN3CCN(C/C=C/C(=O)N4CCCC(n5nc(-c6ccc(Oc7ccccc7)cc6)c6c(N)ncnc65)C4)CC3)=[N+]1[B-]2(F)F (stereo not given) 0, Cc1cnc(Nc2ccc(OCCN3CCCC3)cc2)nc1Nc1cccc(S(=O)(=O)NC(C)(C)C)c1 [Fedratinib (hydrochloride hydrate)] 0, O=C(Nc1cccc(Nc2nccc(Nc3cccc(C(F)(F)F)c3)n2)c1)C1CC1 [Aurora kinase inhibitor-3] 0, COc1ccc(-c2cc3nccn3c(Nc3ncccc3C(N)=O)n2)cc1OC [BAY 61-3606 (dihydrochloride)] 0, Nc1nc(Nc2ccc(S(N)(=O)=O)cc2)nn1C(=O)c1c(F)cccc1F 0, COc1cc(N2CCC(N3CCN(C)CC3)CC2)ccc1Nc1ncc(Cl)c(Nc2ccccc2S(=O)(=O)C(C)C)n1 0, COc1cc(Nc2c(C#N)cnc3cc(OCCCN4CCN(C)CC4)c(OC)cc23)c(Cl)cc1Cl [Bosutinib] 0, CCc1cc2c(cc1-c1cnn(CC(=O)N(C)C)c1)C(C)(C)c1[nH]c3cc(C#N)ccc3c1C2=O 0, Cc1cnc(Nc2ccc(OCCN3CCCC3)cc2)nc1Nc1cccc(S(=O)(=O)NC(C)(C)C)c1 [Fedratinib] 0

Same assay, conditions: 10 µM; K562; 2-18 h

kinase-Nluc reporter destabilization hit call, inactive:
C=CC(=O)N1CCC([C@@H]2CCNc3c(C(N)=O)c(-c4ccc(Oc5ccccc5)cc4)nn32)CC1 [Zanubrutinib] 0, CCn1c(=O)c(-c2cc(NC(=O)Nc3ccccc3)c(F)cc2Br)cc2cnc(NC)cc21 [Ripretinib] 0, COc1cc(N2CCN(C)CC2)ccc1Nc1nccc(-c2cn(C)c3cnccc23)n1 0, Fc1ccc(-c2nc(-c3ccc4ccccc4c3F)[nH]c2-c2ccncc2)cc1 0, C=CC(=O)N(C)CCOc1c(N)ncnc1-c1cc(F)cc(NC(=O)c2ccc(C3CC3)cc2F)c1C [Remibrutinib] 0, NCCNc1ncc(C(N)=O)c(Nc2cccc(C(F)(F)F)c2)n1 [Syk Inhibitor II] 0, C[C@@H]1O[C@@H](Oc2c(-c3ccc(O)c(O)c3)oc3cc(O)cc(O)c3c2=O)[C@H](O)[C@H](O)[C@H]1O [Quercitrin] 0, CCCOc1ccc(C=C2SC(=O)NC2=O)cc1 0, Cc1cc2c(F)c(Oc3ncnn4cc(OC[C@@H](C)O)c(C)c34)ccc2[nH]1 [Brivanib] 0, CC(C)[C@@](C)(O)[C@@H]1CN(c2nc(-c3[nH]nc4ncccc34)c(F)cc2Cl)CCN1 0, CCCCCCCCCCCCc1ccc(S(=O)(=O)Nc2nncs2)cc1 0, CC#CC(=O)N1CCC[C@H]1c1nc(-c2ccc(C(=O)Nc3ccccn3)cc2)c2c(N)nccn12 [Acalabrutinib] 0, CC(C)N(CCC(=O)c1ccc2ccccc2c1)Cc1ccccc1 0, C=CC(=O)N1C[C@@H](Nc2ncnc3[nH]ccc23)CC[C@H]1C [(2R,5S)-Ritlecitinib] 0, COc1ccc(-c2cc(C(=O)NN=C(C)c3ccc(OC)c(OC)c3)[nH]n2)cc1 0, Cc1ccc2c(=O)c3cccc(CC(=O)O)c3oc2c1C [Vadimezan] 0, C[C@@H]1CN(C(=O)Nc2ccc(-c3nc(N4CCOCC4)c4cnn(CCCCCCC(=O)NO)c4n3)cc2)CCO1 [HDACs/mTOR Inhibitor 1] 0, C[C@H]1CN(C2COC2)CCN1c1ccc(Nc2cc(-c3ccnc(N4CCn5c(cc6c5CC(C)(C)C6)C4=O)c3CO)cn(C)c2=O)nc1 [Fenebrutinib] 0, Nc1ncccc1-c1nc2ccc(-c3ccccc3)nc2n1-c1ccc(C2(N)CCC2)cc1 [Miransertib] 0, O=c1ncn2nc(Sc3ccc(F)cc3F)ccc2c1-c1c(Cl)cccc1Cl [Neflamapimod] 0, CCCCCC1CC1CC1CC1CCCCCCCC(=O)OC (stereo not given) 0, NC1(C(=O)N[C@@H](CCO)c2ccc(Cl)cc2)CCN(c2nc[nH]c3nccc2-3)CC1 [Capivasertib] 0, Cc1ccc(O)cc1Nc1ccnc(Nc2cccc(C(N)=O)c2)n1 [Lck inhibitor 2] 0

Each compound was assayed against EGFR_L861Q (UniProt P00533) in the same assay as above. Conditions: 2.5 µM; K562; 2-18 h.

kinase-Nluc reporter destabilization hit call, inactive:
C=CC(=O)N1CCC[C@@H](n2nc(-c3ccc(Oc4ccccc4)cc3)c3c(N)ncnc32)C1 [Ibrutinib] 0, Cc1cn(-c2cc(NC(=O)c3ccc(C)c(Nc4nccc(-c5cccnc5)n4)c3)cc(C(F)(F)F)c2)cn1 [Nilotinib] 0, Cc1cc(C)n2c1C=C1C=CC(CCC(=O)NCCN3CCN(C/C=C/C(=O)N4CCCC(n5nc(-c6ccc(Oc7ccccc7)cc6)c6c(N)ncnc65)C4)CC3)=[N+]1[B-]2(F)F (stereo not given) 0, Cc1cnc(Nc2ccc(OCCN3CCCC3)cc2)nc1Nc1cccc(S(=O)(=O)NC(C)(C)C)c1 [Fedratinib (hydrochloride hydrate)] 0, O=C(Nc1cccc(Nc2nccc(Nc3cccc(C(F)(F)F)c3)n2)c1)C1CC1 [Aurora kinase inhibitor-3] 0, COc1ccc(-c2cc3nccn3c(Nc3ncccc3C(N)=O)n2)cc1OC [BAY 61-3606 (dihydrochloride)] 0, Nc1nc(Nc2ccc(S(N)(=O)=O)cc2)nn1C(=O)c1c(F)cccc1F 0, COc1cc(N2CCC(N3CCN(C)CC3)CC2)ccc1Nc1ncc(Cl)c(Nc2ccccc2S(=O)(=O)C(C)C)n1 0, COc1cc(Nc2c(C#N)cnc3cc(OCCCN4CCN(C)CC4)c(OC)cc23)c(Cl)cc1Cl [Bosutinib] 0, CCc1cc2c(cc1-c1cnn(CC(=O)N(C)C)c1)C(C)(C)c1[nH]c3cc(C#N)ccc3c1C2=O 0, Cc1cnc(Nc2ccc(OCCN3CCCC3)cc2)nc1Nc1cccc(S(=O)(=O)NC(C)(C)C)c1 [Fedratinib] 0
